These are yes or no findings as the source states them, for the method shown.
How the values were obtained:
Experiment in all cases: ITC; both purified
[1] = molecular target: Human Scribble (SCRIB) PDZ1 domain (728-815) (human) (UniProt Q14160)
[2] = molecular target: Human Scribble (SCRIB) PDZ2 domain (860-950) (human) (UniProt Q14160)
[3] = molecular target: Human Scribble (SCRIB) PDZ4 domain (1099-1203) (human) (UniProt Q14160)

Protein sequences, listed by entry. Tags and fused reporters are not part of them. Residues count along the entry.
Human Scribble (SCRIB) PDZ1 domain (728-815) (Q14160, residues 728-815): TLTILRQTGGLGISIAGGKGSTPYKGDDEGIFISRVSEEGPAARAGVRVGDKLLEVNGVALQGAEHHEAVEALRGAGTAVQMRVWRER
Human Scribble (SCRIB) PDZ2 domain (860-950) (Q14160, residues 860-950): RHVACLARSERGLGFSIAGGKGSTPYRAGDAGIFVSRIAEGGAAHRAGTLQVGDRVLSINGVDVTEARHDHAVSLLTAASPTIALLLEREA
Human Scribble (SCRIB) PDZ4 domain (1099-1203) (Q14160, residues 1099-1203): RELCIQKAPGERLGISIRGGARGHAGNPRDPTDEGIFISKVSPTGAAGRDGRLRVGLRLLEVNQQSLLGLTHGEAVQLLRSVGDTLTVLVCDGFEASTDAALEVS

Measured: binding

B1: TBEV NS5_CTN peptide (C-terminal PBM of NS5) (peptide)
peptide: LRLESSII
no binding: [1] | [2] | [3]

Reference: article PMC9317960 (Biochemical Journal, 2022)
